Drawing on PMC11674332, this text covers binding for one molecule.

For this experiment, the target named is T1, human gamma S crystallin (human), P22914.
T1 chain: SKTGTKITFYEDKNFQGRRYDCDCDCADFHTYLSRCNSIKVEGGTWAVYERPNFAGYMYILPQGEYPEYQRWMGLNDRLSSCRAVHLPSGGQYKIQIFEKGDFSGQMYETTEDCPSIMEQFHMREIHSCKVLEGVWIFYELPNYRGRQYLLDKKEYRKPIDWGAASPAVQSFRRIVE
The experiment is described as follows: dynamic light scattering; 50 μM protein, 37 °C, no metal ions; samples centrifuged and passed through a 0.22 μm filter before measurement; both purified. The settings on record: remark: other sources report otherwise.

No constants are given. Whether binding was seen depends on the method and setting.

B1: human gamma S crystallin, P22914 2-178 (protein)
chain: T1 chain
Consider B1, for which the binding entry is reported as “no binding (tested: 50 μM)”.
